# Experimental data published in patent publication US9637520B2 (POLYPHOR AG, priority 2010, dated 2017).
# Test: general procedure: Fmoc solid-phase peptide synthesis; 2-chlorotrityl resin (preloaded Fmoc-amino acid)
# Conditions: whole synthesis, %-purity after prep. HPLC, analytical methods A-D
row,Substance,final purity (method not given) [%]
1,cyclo(-1Nal-^DArg-Arg-Trp-^DPro-Pro((3S)OH)—),86
2,cyclo(-3Pal-^DPhe-Trp-Arg-^DPro((4R)NH2)-Tic-),95
3,cyclo(-Agb-^DPhe-Trp-Arg-^DPro((4R)NH2)-Tic-),96
4,cyclo(-Ala(1Pyraz)-^DPhe-Trp-Arg-^DPro((4R)NH2)-Tic-),97
5,cyclo(-Ala(Tet)-^DPhe-Trp-Arg-^DPro((4R)NH2)-Tic-),94
6,cyclo(-Ala-^DPhe-Trp-Arg-^DPro((4R)NH2)-Tic-),94
7,cyclo(-Arg-^DPhe-Trp-Arg-^DPro((4R)NH2)-Oic-),91
8,cyclo(-Arg-^DPhe-Trp-Arg-^DPro((4R)NH2)-Tic-),92
9,cyclo(-Arg-^DPhe-Trp-Arg-^DPro((4S)NH2)-Tic-),93
10,cyclo(-Arg-^DPhe-Trp-Arg-^DPro-(4S)-Hyp(Bn)-),91
11,cyclo(-Arg-^DPhe-Trp-hArg-^DPro((4R)N H2)-Tic-),88
12,cyclo(-His-^DTrp-His-Trp-^DPro-Pro((4S)NHBz)-),95
13,cyclo(-Ile-^DArg-Arg-2Nal-^DPro-Pro((3S)OH)—),91
14,cyclo(-Ile-^DArg-Arg-Trp-^DPip-Pro((3S)OH)—),92
15,cyclo(-Ile-^DArg-Arg-Trp-^DPip-Thr-),98
16,cyclo(-Ile-^DArg-Arg-Trp-^DPro((4R)NH2)-Thr-),72
17,cyclo(-Ile-^DArg-Arg-Trp-^DPro((4S)OH)-Thr-),85
18,cyclo(-Ile-^DArg-Arg-Trp-^DPro-Mor-),74
19,cyclo(-Ile-^DArg-Arg-Trp-^DPro-Pro((3S)OH)—),98
20,cyclo(-Ile-^DArg-Orn(A41)-Trp-^DPro-Thr-),93
21,cyclo(-Ile-^DArg-Orn(A56)-Trp-^DPro-Thr-),95
22,cyclo(-Ile-^DArg-Orn(Ar2)-Trp-^DPro-Thr-),93
23,cyclo(-Ile-^DArg-Orn(Ar4)-Trp-^DPro-Thr-),84
24,cyclo(-Ile-^DArg-Orn(Ar7)-Trp-^DPro-Thr-),97
25,cyclo(-Orn(A56)-^DPhe-Trp-Arg-^DPro((4R)NH2)-Tic-),96
26,cyclo(-Orn(Ar2)-^DPhe-Trp-Arg-^DPro((4R)NH2)-Tic-),90
27,cyclo(-Pip-^DPhe-Trp-Arg-^DPro((4R)NH2)-Tic-),92

row,Substance,final purity (method not given) [%]
1,cyclo(-Trp-^D3Pal-Trp-Arg-^DPro((4R)NH2)-Tic-),80
2,cyclo(-Trp-^DPhe-Trp-Arg-^DPro((4R)NH2)-(4S)-Hyp(Bn)-),86
3,cyclo(-Trp-^DPhe-Trp-Arg-^DPro((4R)NH2)-Oic-),94
4,cyclo(-Trp-^DPhe-Trp-Arg-^DPro((4R)NH2)-Tic-),90
5,cyclo(-Trp-^DPhe-Trp-Arg-^DPro((4S)NH2)-Tic-),95
6,cyclo(-Trp-^DPhe-Trp-Arg-^DPro((4S)OH)-(4S)-Hyp(Bn)-),89
7,cyclo(-Trp-^DPhe-Trp-Arg-^DPro-Mor-),93
8,cyclo(-Trp-^DPhe-Trp-Arg-^DPro-Pro((4R)NH2)—),95
9,cyclo(-Trp-^DPhe-Trp-Arg-^DPro-Pro((4S)F)—),96
10,cyclo(-Trp-^DPhe-Trp-Arg-^DPro-Pro((4S)NH2)—),>98
11,cyclo(-Trp-^DPhe-Trp-Dab-^DPro((4R)NH2)-Tic-),89
12,cyclo(-Trp-^DPhe-Trp-His-^DPro((4R)NH2)-Tic-),92
13,cyclo(-Trp-^DPhe-Trp-Lys-^DPro((4R)NH2)-Tic-),93
14,cyclo(-Trp-^DPhe-Trp-Orn(A56)-^DPip-Pro((3S)OH)—),93
15,cyclo(-Trp-^DPhe-Trp-Orn(A56)-^DPro((4R)NH2)-Tic-),93
16,cyclo(-Trp-^DPhe-Trp-Orn(A56)-^DPro((4R)NH2)-Tiq-),95
17,cyclo(-Trp-^DPhe-Trp-Orn(Ar7)-^DPro((4R)NH2)-Tic-),92
18,cyclo(-Trp-^DPhe-Trp-Orn-^DPro((4R)NH2)-Tic-),92
19,cyclo(-Tyr-^DPhe-Trp-Arg-^DPro((4R)NH2)-Tic-),92
20,cyclo(-hArg-^DPhe-Trp-Arg-^DPro((4R)NH2)-Tic-),96
21,cyclo(I[dCit]RW[dP]T),88
22,cyclo(I[dDab]RW[dP]T),94
23,cyclo(I[dH]RW[dP]T),95
24,cyclo(I[dK]RW[dP]T),92
25,cyclo(I[dOrn]RW[dP]T),91
26,cyclo(I[dR]KW[dP]T),>98
27,cyclo(I[dR]RF[dP]T),>98

row,Substance,final purity (method not given) [%]
1,cyclo(I[dR]RI[dP]T),97
2,cyclo(I[dR]RW[dP]S),90
3,cyclo(I[dR]RW[dP]T),97
4,cyclo(I[dR]RW[dP][aThr]),97
5,cyclo(I[dR]RW[dP][hSer]),92
6,cyclo(I[dR]RW[dTic]T),94
7,cyclo(I[dR]RY[dP]T),98
8,cyclo(I[dR]R[1Nal][dP]T),91
9,cyclo(I[dR]R[2Nal][dP]T),92
10,cyclo(I[dR]R[Phe(4-CF3)][dP]T),97
11,cyclo(I[dR]WR[dP]T),98
12,cyclo(I[dR][Agb]W[dP]T),98
13,cyclo(I[dR][Agp]W[dP]T),87
14,cyclo(I[dR][Dab]W[dP]T),>98
15,cyclo(I[dR][Orn]W[dP]T),94
16,cyclo(I[dR][hArg]W[dP]T),91
17,cyclo(I[dT]RW[dP]T),95
18,cyclo(L[dR]RW[dP]T),96
19,cyclo(T[dR]WR[dP]T),95
20,cyclo(V[dR]RW[dP]T),88
21,cyclo(W[dR]RW[dP]T),95
22,cyclo([1Nal][dR]RW[dP]T),97
23,cyclo([Abu][dR]RW[dP]T),81
24,cyclo([Cha][dR]RW[dP]T),94
25,cyclo([Chg][dR]RW[dP]T),96
26,cyclo([Nle][dR]RW[dP]T),96

# Non-standard residues stand in square brackets, D forms with d. Phe(4-CF3) = N[C@@H](Cc1ccc(C(F)(F)F)cc1)C(=O)O; 1Nal = N[C@@H](Cc1cccc2ccccc12)C(=O)O; 2Nal = N[C@@H](Cc1ccc2ccccc2c1)C(=O)O; dCit = NC(=O)NCCC[C@@H](N)C(=O)O; hArg = N=C(N)NCCCC[C@H](N)C(=O)O; dTic = O=C(O)[C@H]1Cc2ccccc2CN1; Cha = N[C@@H](CC1CCCCC1)C(=O)O; aThr = C[C@H](O)[C@H](N)C(=O)O; Agb = N=C(N)NCC[C@H](N)C(=O)O; Agp = N=C(N)NC[C@H](N)C(=O)O; Chg = N[C@H](C(=O)O)C1CCCCC1; dOrn = NCCC[C@@H](N)C(=O)O; dDab = NCC[C@@H](N)C(=O)O; hSer = N[C@@H](CCO)C(=O)O; Nle = CCCC[C@H](N)C(=O)O; Orn = NCCC[C@H](N)C(=O)O; Dab = NCC[C@H](N)C(=O)O; Abu = CC[C@H](N)C(=O)O
